Shown are survivors of the treated group in tumour-free mice. Survivors were counted at the toxicity check, usually on the fifth day, unless a day is given; later deaths do not show. Schedules are NCI's codes, taken here to give the interval after Q, in days (D) or hours (H), and the number of doses after X. Some doses were run more than once; their values stand side by side, smallest first.
Tested on: B6D2F1 mice, nontumored toxicity test, survival
Test: NCI In Vivo Anticancer Drug Screen. Data for tumor model Nontumored Animals (Toxicity Test) in B6D2F1 (BDF1) mice

In the case of `COC(=O)[C@@]12OC[C@]34[C@H]([C@@H](O)[C@@H]1O)[C@@]1(C)CC(=O)C(O)=C(C)[C@@H]1C[C@H]3OC(=O)[C@H](OC(=O)/C=C(\C)C(C)C)[C@@H]24`, the survivor count (dose: 1.0 mg/kg/injection, schedule: Q01DX001 (oral), vehicle: saline + alcohol) is reported as 8 of 8, the survivor count (dose: 1.0 mg/kg/injection, schedule: Q01DX001 (sc), vehicle: saline + alcohol) is reported as 8 of 8 and the survivor count (dose: 1.0 mg/kg/injection, schedule: Q01DX009 (ip), vehicle: saline + alcohol) is reported as 8 of 8. The survivor count (dose: 1.0 mg/kg/injection, schedule: Q01DX009 (ip), vehicle: saline with Tween-80) was 10 of 10 and 8 of 8, the survivor count (dose: 1.0 mg/kg/injection, schedule: Q01DX009 (oral), vehicle: saline + alcohol) was 7 of 8 and 8 of 8 and the survivor count (dose: 1.0 mg/kg/injection, schedule: Q01DX009 (sc), vehicle: saline + alcohol) was 8 of 8. The survivor count (dose: 1.0 mg/kg/injection, schedule: Q03HX008 (ip), vehicle: saline + alcohol) was 0 of 8, the survivor count (dose: 1.0 mg/kg/injection, schedule: Q03HX016 (ip), vehicle: saline + alcohol) was 0 of 8 and the survivor count (dose: 1.0 mg/kg/injection, schedule: Q04DX003 (ip), vehicle: saline + alcohol) was 8 of 8. For the same compound, the survivor count (dose: 1.0 mg/kg/injection, schedule: Q08DX002 (ip), vehicle: saline + alcohol) was 8 of 8, the survivor count (dose: 1.5 mg/kg/injection, schedule: Q01DX009 (ip), vehicle: saline with Tween-80) was 9 of 10 and 10 of 10 and the survivor count (dose: 1.6 mg/kg/injection, schedule: Q01DX005 (ip), vehicle: saline + alcohol) was 8 of 8. For the same compound, the survivor count (dose: 1.6 mg/kg/injection, schedule: Q01DX005 (iv), vehicle: saline + alcohol) was 8 of 8, the survivor count (dose: 1.6 mg/kg/injection, schedule: Q01DX009 (ip), vehicle: saline + alcohol) was 8 of 8 and the survivor count (dose: 2.0 mg/kg/injection, schedule: Q01DX001 (ip), vehicle: saline + alcohol) was 8 of 8. The survivor count (dose: 2.0 mg/kg/injection, schedule: Q01DX001 (oral), vehicle: saline + alcohol) was 8 of 8, the survivor count (dose: 2.0 mg/kg/injection, schedule: Q01DX001 (sc), vehicle: saline + alcohol) was 8 of 8 and the survivor count (dose: 2.0 mg/kg/injection, schedule: Q01DX009 (ip), vehicle: saline + alcohol) was 5 of 8, 7 of 8, 8 of 8. The survivor count (dose: 2.0 mg/kg/injection, schedule: Q01DX009 (ip), vehicle: saline with Tween-80) was 7 of 8, the survivor count (dose: 2.0 mg/kg/injection, schedule: Q01DX009 (oral), vehicle: saline + alcohol) was 6 of 7 and 8 of 8 and the survivor count (dose: 2.0 mg/kg/injection, schedule: Q01DX009 (sc), vehicle: saline + alcohol) was 8 of 8. The survivor count (dose: 2.0 mg/kg/injection, schedule: Q03HX008 (ip), vehicle: saline + alcohol) was 0 of 8, the survivor count (dose: 2.0 mg/kg/injection, schedule: Q03HX016 (ip), vehicle: saline + alcohol) was 0 of 8 and the survivor count (dose: 2.0 mg/kg/injection, schedule: Q04DX003 (ip), vehicle: saline + alcohol) was 8 of 8. For the same compound, the survivor count (dose: 2.0 mg/kg/injection, schedule: Q08DX002 (ip), vehicle: saline + alcohol) was 8 of 8, the survivor count (dose: 2.25 mg/kg/injection, schedule: Q01DX009 (ip), vehicle: saline with Tween-80) was 8 of 10 and 10 of 10 and the survivor count (dose: 3.2 mg/kg/injection, schedule: Q01DX005 (ip), vehicle: saline + alcohol) was 7 of 8. For the same compound, the survivor count (dose: 3.2 mg/kg/injection, schedule: Q01DX005 (iv), vehicle: saline + alcohol) was 8 of 8, the survivor count (dose: 4.0 mg/kg/injection, schedule: Q01DX001 (ip), vehicle: saline + alcohol) was 5 of 8 and the survivor count (dose: 4.0 mg/kg/injection, schedule: Q01DX001 (oral), vehicle: saline + alcohol) was 8 of 8. The survivor count (dose: 4.0 mg/kg/injection, schedule: Q01DX001 (sc), vehicle: saline + alcohol) was 6 of 8, the survivor count (dose: 4.0 mg/kg/injection, schedule: Q01DX009 (ip), vehicle: saline + alcohol) was 3 of 8 and the survivor count (dose: 4.0 mg/kg/injection, schedule: Q01DX009 (ip), vehicle: saline with Tween-80) was 5 of 8. For the same compound, the survivor count (dose: 4.0 mg/kg/injection, schedule: Q01DX009 (oral), vehicle: saline + alcohol) was 7 of 8 and 8 of 8, the survivor count (dose: 4.0 mg/kg/injection, schedule: Q04DX003 (ip), vehicle: saline + alcohol) was 7 of 8 and the survivor count (dose: 4.0 mg/kg/injection, schedule: Q08DX002 (ip), vehicle: saline + alcohol) was 6 of 8. For the same compound, the survivor count (dose: 8.0 mg/kg/injection, schedule: Q01DX001 (ip), vehicle: saline + alcohol) was 0 of 8, the survivor count (dose: 8.0 mg/kg/injection, schedule: Q01DX001 (oral), vehicle: saline + alcohol) was 6 of 8 and 8 of 8 and the survivor count (dose: 8.0 mg/kg/injection, schedule: Q01DX001 (sc), vehicle: saline + alcohol) was 5 of 8. For the same compound, the survivor count (dose: 8.0 mg/kg/injection, schedule: Q01DX009 (oral), vehicle: saline + alcohol) was 0 of 8, the survivor count (dose: 8.0 mg/kg/injection, schedule: Q08DX002 (ip), vehicle: saline + alcohol) was 1 of 8 and the survivor count (dose: 16.0 mg/kg/injection, schedule: Q01DX001 (ip), vehicle: saline + alcohol) was 0 of 8. For the same compound, the survivor count (dose: 16.0 mg/kg/injection, schedule: Q01DX001 (oral), vehicle: saline + alcohol) was 3 of 8 and 7 of 8, the survivor count (dose: 16.0 mg/kg/injection, schedule: Q01DX001 (sc), vehicle: saline + alcohol) was 1 of 8 and the survivor count (dose: 16.0 mg/kg/injection, schedule: Q08DX002 (ip), vehicle: saline + alcohol) was 0 of 8.
